Reference: PMC8666589
Results are given in words; binding and its absence hold for the method and conditions named. Some binding calls cover weakened binding; strength is not graded here.

Chains of the proteins cited; added tags and fusions are not shown. Lines headed by an entry give the natural chain unless they say otherwise; changes in a name come on top. Residues count along the entry.
UniProt Q9NZQ7, residues 19-134: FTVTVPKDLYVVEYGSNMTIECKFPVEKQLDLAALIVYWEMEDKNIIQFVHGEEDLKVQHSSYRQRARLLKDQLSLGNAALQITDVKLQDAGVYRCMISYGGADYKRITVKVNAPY
UniProt P09012: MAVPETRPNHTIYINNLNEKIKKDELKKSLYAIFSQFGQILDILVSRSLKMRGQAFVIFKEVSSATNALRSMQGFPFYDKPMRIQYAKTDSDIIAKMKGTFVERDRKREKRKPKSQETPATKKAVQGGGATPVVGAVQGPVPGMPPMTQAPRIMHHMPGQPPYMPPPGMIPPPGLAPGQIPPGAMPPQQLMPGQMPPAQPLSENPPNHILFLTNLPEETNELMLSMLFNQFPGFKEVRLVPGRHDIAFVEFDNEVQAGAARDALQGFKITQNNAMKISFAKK

Molecular target: PD-L1 (human) (UniProt Q9NZQ7)
Test: ELISA; binding ELISA of rU1 snRNPA or variants on PD-L1; curve fitting with GraphPad Prism 8.0; done in double; details in the supplementary materials (not shown); both purified

Row | binding | Substance
1 | binds | rU1 snRNPA variant I33F (from UniProt P09012 1-282)
2 | binds | rU1 snRNPA variant Q36R (from UniProt P09012 1-282)
